Our source for the binding values is US20070280947A1.

Chains of the proteins cited; added tags and fusions are not shown. Lines headed by an entry give the natural chain unless they say otherwise; changes in a name come on top.
UniProt P35590: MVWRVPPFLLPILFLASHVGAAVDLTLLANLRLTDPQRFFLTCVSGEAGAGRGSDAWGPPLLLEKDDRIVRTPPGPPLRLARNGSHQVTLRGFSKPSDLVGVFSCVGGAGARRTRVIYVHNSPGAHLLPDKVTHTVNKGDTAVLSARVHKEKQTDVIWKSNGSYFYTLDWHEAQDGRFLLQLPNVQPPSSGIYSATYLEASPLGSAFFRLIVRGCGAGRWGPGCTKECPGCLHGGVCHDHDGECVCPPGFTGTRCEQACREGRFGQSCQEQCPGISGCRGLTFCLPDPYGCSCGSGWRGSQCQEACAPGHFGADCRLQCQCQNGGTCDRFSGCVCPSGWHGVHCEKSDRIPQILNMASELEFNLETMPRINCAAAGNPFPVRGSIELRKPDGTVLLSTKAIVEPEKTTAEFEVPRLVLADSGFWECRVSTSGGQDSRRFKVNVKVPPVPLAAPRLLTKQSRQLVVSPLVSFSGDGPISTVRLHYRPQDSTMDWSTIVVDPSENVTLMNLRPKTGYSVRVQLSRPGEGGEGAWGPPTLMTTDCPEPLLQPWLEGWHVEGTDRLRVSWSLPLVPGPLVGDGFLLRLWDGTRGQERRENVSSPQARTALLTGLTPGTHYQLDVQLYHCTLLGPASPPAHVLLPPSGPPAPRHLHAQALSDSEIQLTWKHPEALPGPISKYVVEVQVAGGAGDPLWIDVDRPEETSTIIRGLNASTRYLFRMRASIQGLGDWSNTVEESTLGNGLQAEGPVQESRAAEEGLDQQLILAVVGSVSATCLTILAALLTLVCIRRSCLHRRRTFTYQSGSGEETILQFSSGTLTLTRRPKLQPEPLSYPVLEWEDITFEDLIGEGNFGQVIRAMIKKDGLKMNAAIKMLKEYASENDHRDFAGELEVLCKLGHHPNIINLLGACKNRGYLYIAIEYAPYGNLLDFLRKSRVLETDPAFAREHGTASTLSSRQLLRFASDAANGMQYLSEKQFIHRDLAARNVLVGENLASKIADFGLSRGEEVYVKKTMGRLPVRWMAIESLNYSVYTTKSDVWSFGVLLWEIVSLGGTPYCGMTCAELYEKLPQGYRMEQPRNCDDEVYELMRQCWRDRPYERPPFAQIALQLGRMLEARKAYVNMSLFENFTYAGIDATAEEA
UniProt Q02763: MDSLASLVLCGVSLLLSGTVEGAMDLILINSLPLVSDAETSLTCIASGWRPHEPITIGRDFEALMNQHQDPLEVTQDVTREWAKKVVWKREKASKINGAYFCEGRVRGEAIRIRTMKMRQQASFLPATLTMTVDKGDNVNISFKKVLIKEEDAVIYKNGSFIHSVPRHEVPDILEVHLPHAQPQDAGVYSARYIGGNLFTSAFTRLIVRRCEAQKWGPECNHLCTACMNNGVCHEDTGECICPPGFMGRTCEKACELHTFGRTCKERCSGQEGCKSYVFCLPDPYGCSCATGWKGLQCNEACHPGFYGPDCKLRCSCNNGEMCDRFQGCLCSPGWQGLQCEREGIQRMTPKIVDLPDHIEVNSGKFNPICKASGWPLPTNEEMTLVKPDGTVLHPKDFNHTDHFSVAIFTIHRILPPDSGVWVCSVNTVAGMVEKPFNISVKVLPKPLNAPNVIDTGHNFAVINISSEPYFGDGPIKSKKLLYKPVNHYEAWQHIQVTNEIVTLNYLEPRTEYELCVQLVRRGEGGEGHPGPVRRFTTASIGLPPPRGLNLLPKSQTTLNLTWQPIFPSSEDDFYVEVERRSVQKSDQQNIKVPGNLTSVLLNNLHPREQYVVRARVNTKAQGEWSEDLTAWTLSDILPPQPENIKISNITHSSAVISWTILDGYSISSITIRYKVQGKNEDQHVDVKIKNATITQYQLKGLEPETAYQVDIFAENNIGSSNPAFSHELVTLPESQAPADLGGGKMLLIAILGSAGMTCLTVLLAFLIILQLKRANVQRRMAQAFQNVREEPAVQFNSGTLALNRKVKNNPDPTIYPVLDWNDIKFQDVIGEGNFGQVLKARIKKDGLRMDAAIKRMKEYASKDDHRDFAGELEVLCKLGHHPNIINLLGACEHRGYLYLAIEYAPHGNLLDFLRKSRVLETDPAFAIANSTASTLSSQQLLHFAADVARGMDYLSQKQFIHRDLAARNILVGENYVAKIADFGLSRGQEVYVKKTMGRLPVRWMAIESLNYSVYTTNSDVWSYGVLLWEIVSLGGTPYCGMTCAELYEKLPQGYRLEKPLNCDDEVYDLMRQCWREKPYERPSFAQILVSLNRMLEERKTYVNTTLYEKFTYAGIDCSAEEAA

Assay [1] concerns the target Tie-1-V5 (human) (UniProt P35590). Nature of the assay: co-immunoprecipitation from 293T cells transfected with Tie-1-V5 and Tie-2-Myc, after COMP-Ang-1 stimulation and DTSSP cross-linking of cell surface proteins.
The target in assay [2] is Human Tie-2 (human) (UniProt Q02763). Nature of the assay: co-immunoprecipitation from HUVECs after DTSSP cross-linking.
The target is the same in assay [3]. Nature of the assay: summary sentence that refers to the co-immunoprecipitation in Example 2.

No constants are given. Whether binding was seen depends on the method and setting. Binding seen in cells or lysates may run through a third protein. Some entries that bind do so weakly or less than the wild type.

With “Tie-2-Myc (from UniProt Q02763 23-1124) (receptor)”, the binding result in assay [1] was “binds”. Turning to “Human Tie-1 (from UniProt P35590 25-1138) (receptor)”, the binding entry in assay [2] and in assay [3] was “binds” throughout.
